The experiment has as its target T1, zebrafish p53-FLAG (zebrafish) (UniProt P79734).
T1 sequence: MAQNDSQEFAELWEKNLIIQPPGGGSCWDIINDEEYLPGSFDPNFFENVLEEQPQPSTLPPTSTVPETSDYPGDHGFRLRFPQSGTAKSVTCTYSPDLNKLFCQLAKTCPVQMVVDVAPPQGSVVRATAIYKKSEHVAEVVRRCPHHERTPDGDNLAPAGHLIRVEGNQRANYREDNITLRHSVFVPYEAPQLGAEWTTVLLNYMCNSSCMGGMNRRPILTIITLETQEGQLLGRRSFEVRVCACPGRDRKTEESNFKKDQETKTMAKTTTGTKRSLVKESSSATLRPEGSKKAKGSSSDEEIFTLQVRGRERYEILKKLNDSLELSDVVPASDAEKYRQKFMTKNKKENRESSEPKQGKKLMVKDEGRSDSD
As to the kind of experiment: co-IP; cells transfected with the indicated plasmids, infected with E. piscicida at MOI 1, collected at 6 hpi, lysed in IP lysis buffer; FLAG-tagged Protein Immunoprecipitation Kit; blots with anti-FLAG and anti-pTurboGFP.

Results are given in words; binding and its absence hold for the method and conditions named. Binding seen in cells or lysates may run through a third protein. Binding can be weak; no strength is given. Sequences can lack the tags named with a protein.

On to zebrafish CD44a_tv2-GFP, for which the binding entry is “binds”. To zebrafish CD44a_tv1-GFP belongs “binds”.

The values above are taken from paper PMC9427754.
